Data as given in publication PMC13036090.
These are yes or no findings as the source states them, for the method shown. In cells and extracts the contact can be indirect. A yes stands for co-enrichment or nearness to the bait. Other partners may have been found. Where a sequence is shown, tags or fusion partners need not be part of it.

By UniProt entry, the sequences of proteins in these tests, tags left out.
UniProt Q14974: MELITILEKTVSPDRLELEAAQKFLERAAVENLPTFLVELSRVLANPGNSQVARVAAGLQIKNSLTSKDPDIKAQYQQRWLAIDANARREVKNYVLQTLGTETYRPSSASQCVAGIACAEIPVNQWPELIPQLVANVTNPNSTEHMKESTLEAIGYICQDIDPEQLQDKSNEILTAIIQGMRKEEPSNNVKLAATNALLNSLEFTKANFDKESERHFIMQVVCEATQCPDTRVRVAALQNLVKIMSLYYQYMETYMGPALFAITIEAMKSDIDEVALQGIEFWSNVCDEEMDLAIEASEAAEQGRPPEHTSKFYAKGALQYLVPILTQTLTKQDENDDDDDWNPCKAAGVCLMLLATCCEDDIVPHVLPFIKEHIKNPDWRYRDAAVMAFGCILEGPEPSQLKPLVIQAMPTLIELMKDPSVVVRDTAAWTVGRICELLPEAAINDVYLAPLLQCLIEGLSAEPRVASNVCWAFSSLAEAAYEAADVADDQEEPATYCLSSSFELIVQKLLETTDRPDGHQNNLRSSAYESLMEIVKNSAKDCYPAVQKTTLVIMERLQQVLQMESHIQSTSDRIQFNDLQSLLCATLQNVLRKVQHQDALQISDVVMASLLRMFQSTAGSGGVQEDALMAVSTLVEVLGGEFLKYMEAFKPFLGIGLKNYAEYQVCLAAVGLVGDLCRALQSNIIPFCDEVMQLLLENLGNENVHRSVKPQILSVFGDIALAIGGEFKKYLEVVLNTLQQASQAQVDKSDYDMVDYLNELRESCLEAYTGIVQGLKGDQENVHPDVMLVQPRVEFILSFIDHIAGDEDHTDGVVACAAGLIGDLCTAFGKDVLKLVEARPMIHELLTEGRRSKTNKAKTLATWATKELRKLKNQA
UniProt P42224: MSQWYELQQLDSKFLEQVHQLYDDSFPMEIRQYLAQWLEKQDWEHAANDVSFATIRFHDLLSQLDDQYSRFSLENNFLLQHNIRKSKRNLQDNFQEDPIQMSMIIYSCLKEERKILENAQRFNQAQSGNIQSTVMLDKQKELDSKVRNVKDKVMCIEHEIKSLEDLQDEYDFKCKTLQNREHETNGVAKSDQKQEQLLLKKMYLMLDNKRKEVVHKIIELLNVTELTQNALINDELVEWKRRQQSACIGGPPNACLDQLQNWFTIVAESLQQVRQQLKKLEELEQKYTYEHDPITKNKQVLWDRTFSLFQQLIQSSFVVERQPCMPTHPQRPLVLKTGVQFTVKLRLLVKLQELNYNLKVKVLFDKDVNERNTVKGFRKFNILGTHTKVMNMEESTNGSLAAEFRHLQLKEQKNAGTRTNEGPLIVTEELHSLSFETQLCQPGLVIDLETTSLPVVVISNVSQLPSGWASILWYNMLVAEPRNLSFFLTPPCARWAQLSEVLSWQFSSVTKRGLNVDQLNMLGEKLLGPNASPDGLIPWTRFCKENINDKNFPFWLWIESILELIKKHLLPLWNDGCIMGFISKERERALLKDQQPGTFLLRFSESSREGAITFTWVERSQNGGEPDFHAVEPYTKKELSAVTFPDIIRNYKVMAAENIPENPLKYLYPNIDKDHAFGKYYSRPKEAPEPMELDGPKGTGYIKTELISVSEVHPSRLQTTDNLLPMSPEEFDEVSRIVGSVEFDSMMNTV

Biological target: T1, UGDH (uridine diphosphate glucose dehydrogenase), wild type, construct not stated for these experiments (human) (UniProt O60701)
T1 sequence (chain, O-GlcNAc on Ser350 (major site) on part of the protein): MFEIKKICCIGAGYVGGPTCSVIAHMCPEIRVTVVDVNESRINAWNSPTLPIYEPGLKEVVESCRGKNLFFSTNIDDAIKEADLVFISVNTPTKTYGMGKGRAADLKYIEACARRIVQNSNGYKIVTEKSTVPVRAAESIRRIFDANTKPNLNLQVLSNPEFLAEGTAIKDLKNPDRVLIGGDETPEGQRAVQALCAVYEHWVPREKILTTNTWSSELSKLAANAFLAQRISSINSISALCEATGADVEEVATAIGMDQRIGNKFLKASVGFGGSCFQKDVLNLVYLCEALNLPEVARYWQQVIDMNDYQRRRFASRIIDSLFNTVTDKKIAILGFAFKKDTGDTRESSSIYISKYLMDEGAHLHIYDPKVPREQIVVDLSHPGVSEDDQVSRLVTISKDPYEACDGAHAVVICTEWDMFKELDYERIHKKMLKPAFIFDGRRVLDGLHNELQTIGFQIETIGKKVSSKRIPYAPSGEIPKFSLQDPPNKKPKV
Experiment: affinity purification with mass spectrometry; immunoprecipitation coupled with mass spectrometry (IP-MS) of WT and S350A UGDH; cells and tag not told

binding | Substance
binds | KPNB1 found in the UGDH IP-MS (from UniProt Q14974 1-876)
binds weakly | STAT1 in the UGDH IP-MS (from UniProt P42224 1-750)
